The values that follow come from article PMC6077975.

The assay concerns the target T1, full-length ABCB6/HMT-1 as split-ubiquitin bait (HMT-1::Cub) (C. elegans) (UniProt G5EFD4).
T1 sequence: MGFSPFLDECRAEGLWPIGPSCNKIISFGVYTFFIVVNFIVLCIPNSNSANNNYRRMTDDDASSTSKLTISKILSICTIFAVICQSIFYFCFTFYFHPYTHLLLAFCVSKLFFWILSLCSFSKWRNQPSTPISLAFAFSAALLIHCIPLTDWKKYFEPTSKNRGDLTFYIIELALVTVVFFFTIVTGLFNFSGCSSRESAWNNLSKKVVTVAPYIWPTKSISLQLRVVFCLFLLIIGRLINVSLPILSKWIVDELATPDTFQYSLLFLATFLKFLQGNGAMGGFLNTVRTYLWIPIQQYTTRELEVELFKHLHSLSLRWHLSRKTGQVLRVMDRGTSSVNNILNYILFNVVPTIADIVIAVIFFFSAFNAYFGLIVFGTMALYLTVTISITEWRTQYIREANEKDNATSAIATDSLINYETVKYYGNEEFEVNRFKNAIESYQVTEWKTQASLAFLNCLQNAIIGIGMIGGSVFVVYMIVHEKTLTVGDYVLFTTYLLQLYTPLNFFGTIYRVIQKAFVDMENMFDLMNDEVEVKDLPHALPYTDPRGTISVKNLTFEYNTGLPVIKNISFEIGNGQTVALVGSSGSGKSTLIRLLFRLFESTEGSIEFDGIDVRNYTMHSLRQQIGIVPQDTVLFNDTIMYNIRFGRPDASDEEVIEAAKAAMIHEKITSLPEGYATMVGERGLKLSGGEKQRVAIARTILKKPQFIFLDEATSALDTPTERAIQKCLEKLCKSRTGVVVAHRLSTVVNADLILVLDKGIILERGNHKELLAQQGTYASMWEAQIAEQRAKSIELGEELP
Nature of the assay: two-hybrid; mating-based split-ubiquitin system (mbSUS) in yeast; CubPLV bait, NubG prey; growth on SC medium lacking adenine, histidine, leucine, tryptophan; β-galactosidase (X-gal) to confirm.

Results are given in words; binding and its absence hold for the method and conditions named. Binding calls can cover weak binding; strength is not graded here.

For the substance “ABCB6/HMT-1 lacking the NTE domain as split-ubiquitin prey (ΔNTE-HMT-1::NubG) (C. elegans) (domain or fragment)”, the binding entry is given as “binds weakly”.
